# Experimental data published in paper PMC6797763.
# For at least one entry, the source does not settle the construct or the ends of the probe. For some assays here: The comparison behind a weaker result is the experiment's own reference, which may not be listed here.
# Tests used:
# [1] = system: AP2-S (RAP2-7 AP2 domain, microexon skipped) (Gossypium arboreum); experiment: EMSA; conditions: 0.5 ug protein, 5 pmol probe in 20 uL, 5 mM Mg2+, almost failed to bind; 20 uL: 2 uL 10x buffer (100 mM Tris-HCl, 0.5 M KCl, 10 mM DTT, pH 7.5), 1 uL 50% glycerol, 1 uL 1% NP40, 1 uL 1 M KCl, 4 uL 25 mM MgCl2; recombinant protein; protein details: C-terminal 6xHis; label: 5'-FAM
# [2] = system: AP2-I (RAP2-7 AP2 domain, microexon included) (Gossypium arboreum); experiment: EMSA; conditions: 0.5 ug protein, 5 pmol probe in 20 uL, 5 mM Mg2+; 20 uL: 2 uL 10x buffer (100 mM Tris-HCl, 0.5 M KCl, 10 mM DTT, pH 7.5), 1 uL 50% glycerol, 1 uL 1% NP40, 1 uL 1 M KCl, 4 uL 25 mM MgCl2; recombinant protein; protein details: C-terminal 6xHis; label: 5'-FAM
sequence,measurement,setting,value
CTAGACTAGGTGCAGAATTCACTTGATGTCGATACCAGTCTAGACGTAACTGGACGAG (double strand) [Hot probe (58 nt AP2 probe)],binding result,[1],binds more weakly
same,binding result,[2],binds
